Measured values published in PMC4482694, “Machine Learning Models and Pathway Genome Data Base for Trypanosoma cruzi Drug Discovery” (PLoS Neglected Tropical Diseases, 2015).

Test system: T. cruzi CA-I/72
Test: Secondary screening (dose-response assay)
Format: cell-based, Trypanosoma cruzi
Settings: dose-response curve
Procedure: T. cruzi CA-I/72 trypomastigotes were obtained from C2C12 infected-culture supernatants after 4–7 days of infection. Cultures were maintained at 37°C with 5% CO2. […] Compounds were added at 10 mM in 50 nl per well using a Biomek FX (Beckman Coulter) for a final 10 μM concentration in 50 μl total volume, and 2,500 parasites were added in 10 μl per well. The plate was incubated for 72 hours at 37°C with 5% CO2. After the incubation, the plate was fixed with the addition of 50 μl of 8% paraformaldehyde solution, followed by two successive washing steps using PBS. Finally, a staining solution containing 0.5 μg/ml of 4',6-diamidino-2-phenylindole (DAPI) was added to each well of the plate and incubated for at least 4 hours prior to reading. Images were acquired by an IN Cell Analyzer 2000 (GE Healthcare) and analyzed by IN Cell Analyzer Developer 1.6 software. […] Numbers of host cells and intracellular amastigotes were determined based on host cell and parasite nucleus quantification, providing a measure of growth inhibition during the first 72 h of post-infection treatment compared to untreated controls. […] The host cell viability was assessed based on the total number of cells divided by the average number of cells from untreated controls (0.1% DMSO), being <0.5 considered a cytotoxic compound. This assay was performed in duplicate. […]

| Structure (SMILES) | Hill slope |
| --- | --- |
| COc1ccc(CCN(C)CCCC(C#N)(c2ccc(OC)c(OC)c2)C(C)C)cc1OC (racemic) [SC-0005695, (±)-Verapamil hydrochloride] | 1.67 |
| CCCCCCCCCCCCCCCC[n+]1ccccc1 [SC-0011466, cetylpyridinium chloride] | -1.22 |

Counter-ions that a name gives are not always drawn.
